{"source": "PubChem BioAssay AID504834", "about": "(National Center for Advancing Translational Sciences (NCATS), 2011)", "note": "Among all 320,000 compounds or so, about 22,000 (6.9%) were called active. This list was built around the results that the source calls inconclusive (neither active nor inactive); the mix of calls is not that of the screen. The call rests on the fitted dose curve; in most records, active means well fitted inhibition curve with a large enough effect; inconclusive means small, poorly fitted or top-dose-only effect, or another doubt; inactive means no such curve, though single readings can be large or run the other way. Where the call is inconclusive, the potency comes from a doubtful curve fit. On the % scale 0 is the no-effect control and ±100 the full control effect; potency means the concentration at half of the fitted maximal effect."}
{"assay": "Primary qHTS for delayed death inhibitors of the malarial parasite plastid, 96 hour incubation", "details": "P. falciparum luciferase reporter growth; series mostly up to 28.7 µM; activity change, negative = inhibition: at the top concentration", "procedure,_shortened": "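Erythrocytes infected with luciferase-expressing P. falciparum were dispensed at 2% hematocrit and 0.05% parasitemia (final), then incubated with compounds 96 hours at 37 C in 5% CO2. Luminescence after detection reagent addition reported growth.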"}
{"smiles": "COc1cc(Cl)c(C)cc1NC(=O)c1ccc2c(c1)OCO2", "Potency": "inconclusive: 11.7 µM [inhibitor, single point]"}
{"smiles": "CCOc1ccc(-c2nnc(SCC(=O)O)n2Cc2ccccc2)cc1", "Potency": "active: 0.928 µM"}
{"smiles": "C/C(=N\\NC(=O)c1cc(C)oc1C)c1ccc(C)c([N+](=O)[O-])c1", "Potency": "inconclusive: 7.38 µM [inhibitor, single point]"}
{"smiles": "Cc1ccccc1NC(=S)NCC1CCN(C(C)c2ccccc2)C1", "note": "(centres undefined)", "activity change, negative = inhibition": "inactive: 0%"}
{"smiles": "COC(=O)c1ccc(NC(=O)COC(=O)C2=NN(c3ccccc3)C(=O)CC2)cc1", "Potency": "inconclusive: 18.5 µM [inhibitor, partial curve, poor fit]"}
{"smiles": "CCOCCCNC(=S)N(Cc1ccco1)Cc1cc2cc3c(cc2[nH]c1=O)OCCO3", "Potency": "inconclusive: 11.7 µM [inhibitor, partial curve, poor fit]"}
{"smiles": "CCc1ccccc1NC(=O)C1CCN(C(=O)N2CCOc3ccccc32)CC1", "Potency": "inconclusive: 20.8 µM [inhibitor, partial curve, poor fit]"}
{"smiles": "COc1ccc(S(=O)(=O)Nc2ccc3c(c2)OCO3)cc1C", "activity change, negative = inhibition": "inactive: 1.76%"}
{"smiles": "Cc1ccc(NCC(=O)N/N=C/c2ccncc2)cc1", "Potency": "inconclusive: 0.262 µM [inhibitor, partial curve]"}
{"smiles": "O=C(NCC1CCCO1)c1ccc([N+](=O)[O-])o1", "note": "(centres undefined)", "activity change, negative = inhibition": "inactive: -2.73%"}
{"smiles": "Cc1csc(SCc2nc3scc(-c4ccccc4)c3c(=O)[nH]2)n1", "activity change, negative = inhibition": "inactive: -18.4%"}
{"smiles": "Cn1nccc1C(=O)Nc1ccc2c(c1)OCCO2", "Potency": "inconclusive: 10.4 µM [inhibitor, single point]"}
{"smiles": "COc1ccc(/C=C\\C(=O)NCc2ccc3[nH]c(C)cc3c2)cc1OC", "activity change, negative = inhibition": "inactive: -28%"}
{"smiles": "Cc1ccc(CN2CCSc3ccc(C(=O)NCCCN4CCN(C)CC4)cc32)cc1", "Potency": "inconclusive: 1.17 µM [inhibitor, full curve]"}
{"smiles": "COc1ccc(C2(O)C(=O)Nc3ccccc32)cc1", "note": "(centres undefined)", "Potency": "inconclusive: 18.5 µM [inhibitor, single point]"}
{"smiles": "O=C1C2C3C=CC(C2C(=O)N1c1ccccc1O)C1C2C(=O)N(c4ccccc4O)C(=O)C2C31", "note": "(centres undefined)", "Potency": "inconclusive: 0.0026 µM [inhibitor, full curve, poor fit]"}
{"smiles": "CCN(c1ccccc1)S(=O)(=O)c1nnc(NC(=O)C(C)(C)C)s1", "Potency": "inconclusive: 18.5 µM [inhibitor, single point]"}
{"smiles": "CCC(C)(C)NC(=O)C(c1ccccc1F)N(C(=O)c1ccn[nH]1)c1ccccc1", "note": "(centres undefined)", "Potency": "inconclusive: 7.38 µM [inhibitor, single point]"}
{"smiles": "CC(C)CCOC(=O)C(C)Sc1n[nH]c(=O)[nH]c1=O", "note": "(centres undefined)", "activity change, negative = inhibition": "inactive: 33.2%"}
{"smiles": "CN(C(=O)C1CCOC1)c1nnc(-c2cccnc2)s1", "note": "(centres undefined)", "Potency": "inconclusive: 11.7 µM [inhibitor, partial curve]"}
{"smiles": "Cc1ccc(N(C(=O)c2nsc(Cl)c2Cl)C(C(=O)NC2CCCC2)c2ccc(O)cc2)cc1C", "note": "(centres undefined)", "activity change, negative = inhibition": "inactive: 53%"}
{"smiles": "CC(=O)O[C@H]1C[C@@H]2CC[C@@H]3[C@H](CC[C@]4(C)C(=O)CC[C@@H]34)[C@@]2(C)C[C@@H]1OC(C)=O", "Potency": "inconclusive: 5.22 µM [inhibitor, partial curve]"}
{"smiles": "CCN(CC)c1ccc(S(=O)(=O)N2CCOCC2)cc1NC(=O)CSc1cccc[n+]1[O-]", "Potency": "inconclusive: 4.15 µM [inhibitor, partial curve]"}
{"smiles": "COc1ccc(/C=C(\\C#N)c2nc3ccccc3[nH]2)cc1O", "activity change, negative = inhibition": "inactive: -28.7%"}
{"smiles": "COc1cc(/C=C2/C(=N)N3N=C(CC(=O)N4CCOCC4)SC3=NC2=O)ccc1OCc1ccccc1", "activity change, negative = inhibition": "inactive: 56.9%"}
{"smiles": "Cc1oc(C(=O)O)cc1CSCc1ccoc1C(=O)O", "Potency": "inconclusive: 18.5 µM [inhibitor, single point]"}
{"smiles": "COC(=O)C(Cc1ccccc1)NC(=O)CNS(=O)(=O)c1ccc(Br)cc1", "note": "(centres undefined)", "activity change, negative = inhibition": "inactive: 23.7%"}
{"smiles": "Cn1nnc(NC(=O)c2ccc([N+](=O)[O-])cc2Cl)n1", "Potency": "inconclusive: 18.5 µM [inhibitor, single point]"}
{"smiles": "CCN(CC(=O)NC(C)C)C(=O)CCNC(=O)c1ccc(Cl)cc1", "Potency": "inconclusive: 11.7 µM [inhibitor, single point]"}
{"smiles": "Cc1cc(NC(=O)CSc2nnc(CNC(=O)c3ccccc3)o2)no1", "activity change, negative = inhibition": "inactive: -4.72%"}
{"smiles": "O=C(COC(=O)/C=C/c1cccc(C(F)(F)F)c1)NCc1cccs1", "activity change, negative = inhibition": "inactive: -15.1%"}
{"smiles": "COc1ccc(Nc2cc(C)c3ccc(O)cc3n2)cc1", "Potency": "inconclusive: 0.294 µM [inhibitor, full curve]"}
{"smiles": "Cc1[nH]n(C)c(=O)c1[N+](=O)[O-]", "activity change, negative = inhibition": "inactive: 34.8%"}
{"smiles": "CCCCc1cc(=O)oc2cc(C)cc(OCC(=O)NCc3ccncc3)c12", "Potency": "active: 2.33 µM"}
{"smiles": "Cc1occc1-c1nnc(SCC(=O)N2CCN(c3ccc(F)cc3)CC2)n1C", "Potency": "inconclusive: 1.85 µM [inhibitor, full curve]"}
{"smiles": "C/C(=N\\NC(=O)c1ccccc1OCCOc1ccccc1)c1ccccc1F", "Potency": "inconclusive: 7.38 µM [inhibitor, partial curve]"}
{"smiles": "O=C(CSc1nc2nc(-c3cccs3)cc(C(F)(F)F)c2c(=O)[nH]1)Nc1ccc(F)c(F)c1", "activity change, negative = inhibition": "inactive: -3.27%"}
{"smiles": "Cc1ccc(SCC(=O)NCc2ccccc2)cc1", "Potency": "inconclusive: 13.1 µM [inhibitor, single point]"}
{"smiles": "CCOC(=O)N1[C@@H]2C=C(C)[C@@H]2[C@@H]2[C@@H](C)C(=O)N21", "activity change, negative = inhibition": "inactive: 0.899%"}
{"smiles": "CC1=C(C(=O)OCCBr)C(c2cccc3ccccc23)NC(=O)N1", "note": "(centres undefined)", "Potency": "inconclusive: 16.5 µM [inhibitor, single point]"}
{"smiles": "CCOC(=O)N1CCN(C(=O)C(NC(=O)c2ccc(C(C)(C)C)cc2)C(C)C)CC1", "note": "(centres undefined)", "Potency": "inconclusive: 14.7 µM [inhibitor, single point]"}
{"smiles": "CC1(C)OC1COc1c2ccoc2cc2oc(=O)ccc12", "note": "(centres undefined)", "Potency": "active: 0.37 µM"}
{"smiles": "O=C(Nc1ccc(-c2ccc3nncn3n2)cc1)c1ccc(Br)o1", "Potency": "inconclusive: 18.5 µM [inhibitor, single point]"}
{"smiles": "COc1ccc(S(=O)(=O)Cc2ccc(C(=O)NCc3ccco3)o2)cc1", "activity change, negative = inhibition": "inactive: 30.7%"}
{"smiles": "COC(=O)c1ccc(NC(=O)c2ccccc2N(C)S(=O)(=O)c2ccccc2)cc1", "Potency": "inconclusive: 10.4 µM [inhibitor, single point]"}
{"smiles": "Cc1cc(N/N=C/c2ccccc2O)c2ccccc2n1", "Potency": "inconclusive: 18.5 µM [inhibitor, single point]"}
{"smiles": "CCc1nc2ccc(C(=O)N(C)CC(=O)Nc3ccc(Cl)c(C(F)(F)F)c3)cc2nc1CC", "Potency": "inconclusive: 16.5 µM [inhibitor, partial curve, poor fit]"}
{"smiles": "CCC(C)NC(=O)C1CCN(S(=O)(=O)N2CCOCC2)CC1", "note": "(centres undefined)", "activity change, negative = inhibition": "inactive: 1.05%"}
{"smiles": "N=C1/C(=C\\c2ccc(OC(=O)c3ccc(F)cc3)cc2)C(=O)N=C2SC(N3CCCC3)=NN12", "Potency": "inconclusive: 18.5 µM [inhibitor, single point]"}
{"smiles": "COc1cc(NC(=S)NCCc2c[nH]c3ccccc23)c(OC)cc1Cl", "Potency": "inconclusive: 13.1 µM [inhibitor, single point]"}
{"smiles": "CCCCOc1ccc(N(CC(=O)NC(C)C)C(=O)CCC(=O)Nc2ccccn2)cc1", "Potency": "inconclusive: 4.15 µM [inhibitor, single point]"}
{"smiles": "O=S(=O)(c1ccc(SCc2ccccc2F)nc1)N1CCCC1", "activity change, negative = inhibition": "inactive: -10.8%"}
{"smiles": "CCCCn1c(N)c(N(CC(C)C)C(=O)CSCc2c(C)noc2C)c(=O)[nH]c1=O", "Potency": "inconclusive: 13.1 µM [inhibitor, partial curve, poor fit]"}
{"smiles": "COc1ccc(C2/C(=C(/O)c3ccccc3)C(=O)C(=O)N2c2ccccn2)c(OC)c1", "note": "(centres undefined)", "activity change, negative = inhibition": "inactive: 34.5%"}
{"smiles": "CCOC(=O)CC(=O)CSc1ccc2nnc(-c3cccc(F)c3)n2n1", "activity change, negative = inhibition": "inactive: 6.92%"}
{"smiles": "O=C(CN(Cc1ccco1)C(=O)CNS(=O)(=O)c1ccc(Cl)cc1)NCC1CCCO1", "note": "(centres undefined)", "activity change, negative = inhibition": "inactive: 0%"}
{"smiles": "CCc1ccc(NC(=O)C2CCCCC2C(=O)O)cc1", "note": "(centres undefined)", "activity change, negative = inhibition": "inactive: 8.88%"}
{"smiles": "CCC1Oc2ccc(C)cc2N(CC(=O)NCC2COc3ccccc3O2)C1=O", "note": "(centres undefined)", "Potency": "inconclusive: 9.28 µM [inhibitor, single point]"}
{"smiles": "O=C1ON=C(c2ccccc2)/C1=C/c1ccccc1", "Potency": "inconclusive: 2.62 µM [inhibitor, single point]"}
{"smiles": "O=C(O)C1CCC(N2C(=O)C3C4CCC(C4)C3C2=O)CC1", "note": "(centres undefined)", "Potency": "inconclusive: 0.233 µM [inhibitor, full curve, poor fit]"}
{"smiles": "CCc1cccc(C)c1NC(=S)NCc1cccn1C", "Potency": "inconclusive: 8.28 µM [inhibitor, partial curve]"}
{"smiles": "CC(=O)Nc1ccc(NC(=O)c2ccccc2Sc2ccc([N+](=O)[O-])cc2Cl)cc1", "Potency": "inconclusive: 11.7 µM [inhibitor, partial curve, poor fit]"}
{"smiles": "Cc1cc(C(=O)OCC(=O)N2CC(C)CC(C)C2)c(C)o1", "note": "(centres undefined)", "Potency": "inconclusive: 1.04 µM [inhibitor, partial curve, poor fit]"}
{"smiles": "CCOC(=O)N1CCC(N2C(=O)c3ccccc3C2Nc2cc(OC)c(OC)c(OC)c2)CC1", "note": "(centres undefined)", "Potency": "inconclusive: 16.5 µM [inhibitor, partial curve, poor fit]"}
{"smiles": "O=C(CCN1C(=O)/C(=C\\c2ccccc2)SC1=S)NNC(=O)c1ccccc1O", "Potency": "inconclusive: 6.57 µM [inhibitor, partial curve]"}
{"smiles": "COc1ccccc1N1CCN(c2ccnc3cc(Cl)ccc23)CC1", "Potency": "active: 0.465 µM"}
{"smiles": "COc1ccc(C)cc1NC(=O)CNC(c1ccccc1)c1ccccc1", "Potency": "inconclusive: 2.08 µM [inhibitor, full curve, poor fit]"}
{"smiles": "O=C(C1=C[C@@H](c2ccc(Br)cc2)C[C@@H](OCc2ccc(CO)cc2)O1)N1CCN(Cc2ccccc2)CC1", "Potency": "active: 11.7 µM"}
{"smiles": "Cc1ccc(NC(=S)N2CCN(S(=O)(=O)c3ccc(C)cc3)CC2)cc1", "Potency": "inconclusive: 11.7 µM [inhibitor, partial curve, poor fit]"}
